The list shows a part of the results. The main result of the screen is listed elsewhere. These columns were measured beside it and carry no call. The list favours compounds with an active or inconclusive main result. Words in brackets tell the shape of the fitted curve; partial curves, single points and poor fits give uncertain potencies.

A short description of this assay: qHTS Assay to Find Inhibitors of Chronic Active B-Cell Receptor Signaling. The conditions noted are these: ABC-DLBCL IkBa-CBG/CBR reporter, luminescence ratio (green luciferase fused to IkBa over red control in TMD8 lymphoma cells), 4 h. The procedure, abridged: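 Compounds up to 46 uM were incubated four hours with TMD8 cells whose green CBG68 luciferase is fused to IkappaBalpha; red CBR luminescence normalised the signal, and concentration-effect curves were fitted to fusion, red and ratio data.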
(In general: qHTS replaces the single test concentration by a dilution series.)

Setting [1] is: measured here: CBR red luminescence, cell number.
The mark [2] stands for this setting: measured here: IkBa-CBG green luminescence.

Usually AC50 stands for the concentration giving half of the maximal activity seen. For the compound `O=C(Nc1nncs1)c1cccc(S(=O)(=O)N2CCCC2)c1`, under setting [1], the concentration at half-maximal activity (AC50) is 16.4 µM [rising, single point]. For the compound `Cc1ncsc1CCOC(=O)c1ccccc1`, the half-maximal activity concentration (AC50) under setting [1] was 11.2 µM [rising, partial curve, poor fit]. On to `CC(C(=O)NC1=NCCS1)(C(F)(F)F)C(F)(F)F`, for which the half-maximal activity concentration (AC50) under setting [1] was 0.366 µM [falling, full curve, poor fit]. The same measure, in the same setting: the value for `CCc1nnc(NC(=O)C2Cc3ccccc3CN2S(=O)(=O)c2ccc(C)cc2)s1` (stereo not drawn) was 35.5 µM [falling, single point]. Turning to `Cc1ccc(CN2C(=O)CSC2c2cccnc2)cc1` (stereo not drawn), under setting [1], the half-maximal activity concentration (AC50) was 6.31 µM [rising, single point].

For the compound `CCOC(=O)Cc1csc(NC(=O)c2ccc(N3CCOCC3)cc2[N+](=O)[O-])n1`, under setting [1], the AC50 is 25.9 µM [falling, partial curve]. As for `CC(=O)N(C(C)=O)C1=C(C#N)C2(CCCCC2)Cc2ccccc21`, under setting [1], the half-maximal activity concentration (AC50) was 17.8 µM [falling, single point]. Still for that read-out and setting: the value for `O=[N+]([O-])c1ccc(-n2ccnc2)cc1` was 35.5 µM [rising, single point]; that for `Cc1ccnc(SCC(=O)Nc2sc3c(c2C#N)CCCC3)n1` was 3.55 µM [rising, partial curve, poor fit]. In the case of `Cc1cccc(NC(=O)CN(c2ccc(F)cc2)S(C)(=O)=O)c1`, the half-maximal activity concentration (AC50) is 8.91 µM [falling, partial curve, poor fit] under setting [1] and 10 µM [rising, partial curve, poor fit] under setting [2]. As for `CCC(=O)OCC(=O)N=c1sccn1Cc1ccc(C)cc1`, under setting [1], the AC50 was 14.1 µM [falling, single point]. Take `O=C(CN1CCCCC1)N/N=C/c1ccccc1OCc1ccccc1`: under setting [1], the AC50 is 6.51 µM [rising, single point]. On to `COc1cc(C(C[N+](=O)[O-])c2c(-c3ccccc3)cc3ccccn23)cc(OC)c1OC` (stereo not drawn), for which the AC50 under setting [1] is 11.6 µM [falling, partial curve]. On to `CCOC(=O)C1CCCN(C(c2ccccn2)c2c(C)[nH]c3ccccc23)C1` (stereo not drawn), for which, under setting [1], the AC50 was 22.4 µM [falling, single point]. On to `COc1ccc(C(=O)c2ccc(Cl)c([N+](=O)[O-])c2)cc1`, for which, under setting [2], the AC50 was 7.31 µM [falling, partial curve]. As for `Cc1ccc(S(=O)(=O)NC(=O)Nc2ccc(N(C)C)cc2)cc1`, under setting [1], the concentration at half-maximal activity (AC50) is 7.08 µM [falling, partial curve].

Take `COc1ccc(C)cc1NC(=O)c1ccc(OC(F)F)cc1`: the concentration at half-maximal activity (AC50) under setting [1] is 0.231 µM [rising, full curve, poor fit]. On to `CCOC(=O)c1c(NC(=O)CSc2nnc(C)c(=O)[nH]2)sc2c1CCC2`, for which the half-maximal activity concentration (AC50) under setting [1] was 23.1 µM [rising, partial curve, poor fit]. As to `FCCCOc1ccc(-c2nccc(-c3ccc(F)cc3)n2)cc1`, the AC50 under setting [1] was 13 µM [rising, single point]. Consider `O=C1c2ccccc2C(=O)N1c1nc(-c2cccs2)cs1`, for which the AC50 under setting [1] is 14.6 µM [falling, partial curve].

Take `CC(=C1C(=O)c2ccccc2C1=O)N1CCN(c2ccc(F)cc2)CC1`: the concentration at half-maximal activity (AC50) under setting [1] is 22.4 µM [falling, single point].

As for `CC1CC1C(=O)OCC(=O)NCc1ccccc1Cl` (stereo not drawn), under setting [1], the AC50 was 25.9 µM [falling, single point]. Still for that read-out and setting: the value for `O=C(CCN1C(=O)C2C3C=CC(C3)C2C1=O)N1CCN(c2ccccc2F)CC1` (stereo not drawn) was 6.51 µM [rising, partial curve, poor fit]; that for `Clc1ccccc1-c1nc(-c2ccncc2)no1` was 35.5 µM [falling, single point]. For the compound `COC(=O)C1=C(C)NC(C)=C(C(=O)OCC2CCCO2)C1c1cccc(Br)c1` (stereo not drawn), the AC50 under setting [1] is 25.1 µM [falling, single point]. As to `C/C(=C\C(=O)OCC(=O)NCc1ccccc1)C(=O)OCC(=O)NCc1ccccc1`, the AC50 by setting is: under setting [1], 6.51 µM [falling, partial curve]; under setting [2], 29.1 µM [rising, partial curve, poor fit]. Consider `C/C(=N\NC(=O)c1cc(-c2cccc([N+](=O)[O-])c2)n[nH]1)c1ccc(F)cc1`, for which, under setting [1], the half-maximal activity concentration (AC50) is 6.31 µM [rising, single point].

For `COc1cc(OC)cc(C(=O)NCCn2ccc3ccccc32)c1`, the AC50 under setting [1] is 5.01 µM [falling, partial curve]. Still for that read-out and setting: next, `Cc1ccc(N2CS(=O)(=O)/C(=C/N(C)C)C2=O)cc1`: 20 µM [rising, single point]; `CN(C(=O)CSc1nnc(C2CC2)n1-c1ccccc1)C1CCS(=O)(=O)C1` (stereo not drawn): 2.91 µM [rising, partial curve].

As to `COCCn1c(=S)[nH]c2cc(C(=O)N3CC(C)CC(C)C3)ccc2c1=O` (stereo not drawn), under setting [1], the concentration at half-maximal activity (AC50) is 0.112 µM [falling, full curve, poor fit]. Take `COc1ccc(OC)c(CN2CCN(C(=O)c3cccs3)CC2)c1`: the AC50 under setting [1] was 3.55 µM [rising, partial curve, poor fit]. As to `COc1ccc(C)cc1NC(=O)CSc1nc(=O)n(Cc2cccnc2)c2c1CCC2`, the AC50 under setting [1] is 8.91 µM [falling, partial curve, poor fit]. Take `CC(C)Cc1ccc(/C=C/C(=O)NC2CC2)cc1`: the AC50 under setting [1] is 4.11 µM [rising, partial curve, poor fit]. With `CCOC(=O)c1c(C)nc2sc3c(c2c1-c1ccc(OC)cc1)NC(c1ccc(OC)cc1)NC3=O` (stereo not drawn), under setting [1], the concentration at half-maximal activity (AC50) is 2.82 µM [rising, partial curve, poor fit]. Take `CCNC(=O)c1cccc(NC(=O)c2cc(C3CC3)nc3c2cnn3C(C)C)c1`: the half-maximal activity concentration (AC50) under setting [1] is 0.731 µM [rising, full curve, poor fit]. Take `FC(F)(F)c1cccc(Cc2noc(CN3CCC(N4CCCCC4)CC3)n2)c1`: under setting [1], the half-maximal activity concentration (AC50) was 0.891 µM [rising, full curve, poor fit]. Same read-out and setting: the value for `O=C(Nc1cc(C(F)(F)F)ccc1-n1cncn1)c1ccc(Cl)cc1` was 0.00461 µM [rising, full curve, poor fit]; that for `CC1CCCN(CC(=O)Nc2cc(Cl)ccc2Oc2ccccc2)C1` (stereo not drawn) was 14.1 µM [rising, single point]; that for `Cc1cc(C)c(S(=O)(=O)N2CCN(C(=O)c3cc4ccccc4oc3=O)CC2)c(C)c1` was 25.9 µM [rising, partial curve]. For the compound `O=C(CSc1ccccc1)Nc1ccc(S(=O)(=O)NCC2CCCO2)cc1` (stereo not drawn), the half-maximal activity concentration (AC50) under setting [1] is 16.4 µM [falling, single point].

The record behind these values is PubChem BioAssay AID493014 (National Center for Advancing Translational Sciences (NCATS), 2011).
